Assay results as given in doi:10.1101/2025.02.07.636106.
Results are given in words; binding and its absence hold for the method and conditions named. Binding seen in cells or lysates may run through a third protein. Here binding means that the protein was enriched with, or labelled near, the bait; the list need not be complete. For some assays here: Sequences can lack the tags named with a protein.

Amino acid sequences for entries named in this document (tags omitted). Residues count along the entry.
UniProt Q9P0T7, residues 21-183: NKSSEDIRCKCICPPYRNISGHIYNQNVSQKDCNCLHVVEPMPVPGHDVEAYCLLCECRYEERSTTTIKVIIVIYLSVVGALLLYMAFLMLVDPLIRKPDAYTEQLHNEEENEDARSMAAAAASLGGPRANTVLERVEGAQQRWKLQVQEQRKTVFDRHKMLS

T1: TMEM230 (human (endogenous in HEK293 and in H9-derived iNeurons)) (UniProt Q96A57)
T1 sequence: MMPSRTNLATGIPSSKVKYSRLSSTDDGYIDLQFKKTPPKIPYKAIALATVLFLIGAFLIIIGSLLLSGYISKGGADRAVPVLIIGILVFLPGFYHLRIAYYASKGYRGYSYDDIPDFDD

T2: HA-TMEM230(Y29C) (human) (UniProt Q96A57)
T2 sequence: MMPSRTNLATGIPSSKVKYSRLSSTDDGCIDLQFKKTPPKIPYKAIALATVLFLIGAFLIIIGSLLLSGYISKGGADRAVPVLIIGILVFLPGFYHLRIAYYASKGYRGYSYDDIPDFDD

T3: HA-TMEM230 (WT, lentiviral) (human) (UniProt Q96A57)
T3 sequence: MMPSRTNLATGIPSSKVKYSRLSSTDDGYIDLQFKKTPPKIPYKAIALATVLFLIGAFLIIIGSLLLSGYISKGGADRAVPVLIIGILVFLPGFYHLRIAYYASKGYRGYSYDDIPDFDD


Assays:
[1] = molecular target: T1, TMEM230 (human (endogenous in HEK293 and in H9-derived iNeurons)); assay: affinity purification with mass spectrometry; anti-TMEM230 immune complexes from WT H9 iNeurons compared to H9-TMEM230-/- iNeurons; 0.5% DDM extraction; TMT-MS
HA-TMEM230(Y29C) (human) = molecular target: T2, HA-TMEM230(Y29C) (human); assay: affinity purification with mass spectrometry; TMEM230 immunoprecipitations from H9-TMEM230-/- iNeurons with or without lentiviral expression of WT and variant HA-TMEM230; 0.5% DDM extraction; TMT-MS
[2] = molecular target: T3, HA-TMEM230 (WT, lentiviral) (human); assay: as above
[3] = molecular target: TMEM9-HA (lentiviral, iNeurons) (human) (UniProt Q9P0T7); assay: affinity purification with mass spectrometry; anti-HA immunoprecipitations from TMEM9-/- iNeurons (day 21) with or without lentiviral expression of TMEM9-HA, four biological replicates; 0.5% DDM extraction; TMT-MS

binding [1]	binding (HA-TMEM230(Y29C) (human))	binding [2]	binding [3]	Binder
binds	binds	binds		ATP11B (protein, UniProt Q9Y2G3 1-1177) MWRWIRQQLGFDPPHQSDTRTIYVANRFPQNGLYTPQKFIDNRIISSKYTVWNFVPKNLFEQFRRVANFYFLIIFLVQLMIDTPTSPVTSGLPLFFVITVTAIKQGYEDWLRHNSDNEVNGAPVYVVRSGGLVKTRSKNIRVGDIVRIAKDEIFPADLVLLSSDRLDGSCHVTTASLDGETNLKTHVAVPETALLQTVANLDTLVAVIECQQPEADLYRFMGRMIITQQMEEIVRPLGPESLLLRGARLKNTKEIFGVAVYTGMETKMALNYKSKSQKRSAVEKSMNTFLIIYLVILISEAVISTILKYTWQAEEKWDEPWYNQKTEHQRNSSKILRFISDFLAFLVLYNFIIPISLYVTVEMQKFLGSFFIGWDLDLYHEESDQKAQVNTSDLNEELGQVEYVFTDKTGTLTENEMQFRECSINGMKYQEINGRLVPEGPTPDSSEGNLSYLSSLSHLNNLSHLTTSSSFRTSPENETELIKEHDLFFKAVSLCHTVQISNVQTDCTGDGPWQSNLAPSQLEYYASSPDEKALVEAAARIGIVFIGNSEETMEVKTLGKLERYKLLHILEFDSDRRRMSVIVQAPSGEKLLFAKGAESSILPKCIGGEIEKTRIHVDEFALKGLRTLCIAYRKFTSKEYEEIDKRIFEARTALQQREEKLAAVFQFIEKDLILLGATAVEDRLQDKVRETIEALRMAGIKVWVLTGDKHETAVSVSLSCGHFHRTMNILELINQKSDSECAEQLRQLARRITEDHVIQHGLVVDGTSLSLALREHEKLFMEVCRNCSAVLCCRMAPLQKAKVIRLIKISPEKPITLAVGDGANDVSMIQEAHVGIGIMGKEGRQAARNSDYAIARFKFLSKLLFVHGHFYYIRIATLVQYFFYKNVCFITPQFLYQFYCLFSQQTLYDSVYLTLYNICFTSLPILIYSLLEQHVDPHVLQNKPTLYRDISKNRLLSIKTFLYWTILGFSHAFIFFFGSYLLIGKDTSLLGNGQMFGNWTFGTLVFTVMVITVTVKMALETHFWTWINHLVTWGSIIFYFVFSLFYGGILWPFLGSQNMYFVFIQLLSSGSAWFAIILMVVTCLFLDIIKKVFDRHLHPTSTEKAQLTETNAGIKCLDSMCCFPEGEAACASVGRMLERVIGRCSPTHISRSWSASDPFYTNDRSILTLSTMDSSTC
binds	binds	binds		ATP8A1 (protein, UniProt Q9Y2Q0 1-1164) MPTMRRTVSEIRSRAEGYEKTDDVSEKTSLADQEEVRTIFINQPQLTKFCNNHVSTAKYNIITFLPRFLYSQFRRAANSFFLFIALLQQIPDVSPTGRYTTLVPLLFILAVAAIKEIIEDIKRHKADNAVNKKQTQVLRNGAWEIVHWEKVAVGEIVKVTNGEHLPADLISLSSSEPQAMCYIETSNLDGETNLKIRQGLPATSDIKDVDSLMRISGRIECESPNRHLYDFVGNIRLDGHGTVPLGADQILLRGAQLRNTQWVHGIVVYTGHDTKLMQNSTSPPLKLSNVERITNVQILILFCILIAMSLVCSVGSAIWNRRHSGKDWYLNLNYGGASNFGLNFLTFIILFNNLIPISLLVTLEVVKFTQAYFINWDLDMHYEPTDTAAMARTSNLNEELGQVKYIFSDKTGTLTCNVMQFKKCTIAGVAYGHVPEPEDYGCSPDEWQNSQFGDEKTFSDSSLLENLQNNHPTAPIICEFLTMMAVCHTAVPEREGDKIIYQAASPDEGALVRAAKQLNFVFTGRTPDSVIIDSLGQEERYELLNVLEFTSARKRMSVIVRTPSGKLRLYCKGADTVIYDRLAETSKYKEITLKHLEQFATEGLRTLCFAVAEISESDFQEWRAVYQRASTSVQNRLLKLEESYELIEKNLQLLGATAIEDKLQDQVPETIETLMKADIKIWILTGDKQETAINIGHSCKLLKKNMGMIVINEGSLDGTRETLSRHCTTLGDALRKENDFALIIDGKTLKYALTFGVRQYFLDLALSCKAVICCRVSPLQKSEVVEMVKKQVKVVTLAIGDGANDVSMIQTAHVGVGISGNEGLQAANSSDYSIAQFKYLKNLLMIHGAWNYNRVSKCILYCFYKNIVLYIIEIWFAFVNGFSGQILFERWCIGLYNVMFTAMPPLTLGIFERSCRKENMLKYPELYKTSQNALDFNTKVFWVHCLNGLFHSVILFWFPLKALQYGTAFGNGKTSDYLLLGNFVYTFVVITVCLKAGLETSYWTWFSHIAIWGSIALWVVFFGIYSSLWPAIPMAPDMSGEAAMLFSSGVFWMGLLFIPVASLLLDVVYKVIKRTAFKTLVDEVQELEAKSQDPGAVVLGKSLTERAQLLKNVFKKNHVNLYRSESLQQNLLHGYAFSQDENGIVSQSEVIRAYDTTKQRPDEW
			binds	CLCN5 (protein, UniProt P51795 1-816) MAMWQGAMDNRGFQQGSFSSFQNSSSDEDLMDIPATAMDFSMRDDVPPLDREVGEDKSYNGGGIGSSNRIMDFLEEPIPGVGTYDDFNTIDWVREKSRDRDRHREITNKSKESTWALIHSVSDAFSGWLLMLLIGLLSGSLAGLIDISAHWMTDLKEGICTGGFWFNHEHCCWNSEHVTFEERDKCPEWNSWSQLIISTDEGAFAYIVNYFMYVLWALLFAFLAVSLVKVFAPYACGSGIPEIKTILSGFIIRGYLGKWTLVIKTITLVLAVSSGLSLGKEGPLVHVACCCGNILCHCFNKYRKNEAKRREVLSAAAAAGVSVAFGAPIGGVLFSLEEVSYYFPLKTLWRSFFAALVAAFTLRSINPFGNSRLVLFYVEFHTPWHLFELVPFILLGIFGGLWGALFIRTNIAWCRKRKTTQLGKYPVIEVLVVTAITAILAFPNEYTRMSTSELISELFNDCGLLDSSKLCDYENRFNTSKGGELPDRPAGVGVYSAMWQLALTLILKIVITIFTFGMKIPSGLFIPSMAVGAIAGRLLGVGMEQLAYYHQEWTVFNSWCSQGADCITPGLYAMVGAAACLGGVTRMTVSLVVIMFELTGGLEYIVPLMAAAMTSKWVADALGREGIYDAHIRLNGYPFLEAKEEFAHKTLAMDVMKPRRNDPLLTVLTQDSMTVEDVETIISETTYSGFPVVVSRESQRLVGFVLRRDLIISIENARKKQDGVVSTSIIYFTEHSPPLPPYTPPTLKLRNILDLSPFTVTDLTPMEIVVDIFRKLGLRQCLVTHNGRLLGIITKKDVLKHIAQMANQDPDSILFN
			binds	TMEM9B (protein, UniProt Q9NQ34 34-198) AKNFEDVRCKCICPPYKENSGHIYNKNISQKDCDCLHVVEPMPVRGPDVEAYCLRCECKYEERSSVTIKVTIIIYLSILGLLLLYMVYLTLVEPILKRRLFGHAQLIQSDDDIGDHQPFANAHDVLARSRSRANVLNKVEYAQQRWKLQVQEQRKSVFDRHVVLS
binds	binds	binds		TMEM30A (protein, UniProt Q9NV96 1-361) MAMNYNAKDEVDGGPPCAPGGTAKTRRPDNTAFKQQRLPAWQPILTAGTVLPIFFIIGLIFIPIGIGIFVTSNNIREIEIDYTGTEPSSPCNKCLSPDVTPCFCTINFTLEKSFEGNVFMYYGLSNFYQNHRRYVKSRDDSQLNGDSSALLNPSKECEPYRRNEDKPIAPCGAIANSMFNDTLELFLIGNDSYPIPIALKKKGIAWWTDKNVKFRNPPGGDNLEERFKGTTKPVNWLKPVYMLDSDPDNNGFINEDFIVWMRTAALPTFRKLYRLIERKSDLHPTLPAGRYSLNVTYNYPVHYFDGRKRMILSTISWMGGKNPFLGIAYIAVGSISFLLGVVLLVINHKYRNSSNTADITI
binds	binds	binds		ATP8A2 (protein, UniProt Q9NTI2 1-1188) MLNGAGLDKALKMSLPRRSRIRSSVGPVRSSLGYKKAEDEMSRATSVGDQLEAPARTIYLNQPHLNKFRDNQISTAKYSVLTFLPRFLYEQIRRAANAFFLFIALLQQIPDVSPTGRYTTLVPLIIILTIAGIKEIVEDFKRHKADNAVNKKKTIVLRNGMWHTIMWKEVAVGDIVKVVNGQYLPADVVLLSSSEPQAMCYVETANLDGETNLKIRQGLSHTADMQTREVLMKLSGTIECEGPNRHLYDFTGNLNLDGKSLVALGPDQILLRGTQLRNTQWVFGIVVYTGHDTKLMQNSTKAPLKRSNVEKVTNVQILVLFGILLVMALVSSAGALYWNRSHGEKNWYIKKMDTTSDNFGYNLLTFIILYNNLIPISLLVTLEVVKYTQALFINWDTDMYYIGNDTPAMARTSNLNEELGQVKYLFSDKTGTLTCNIMNFKKCSIAGVTYGHFPELAREPSSDDFCRMPPPCSDSCDFDDPRLLKNIEDRHPTAPCIQEFLTLLAVCHTVVPEKDGDNIIYQASSPDEAALVKGAKKLGFVFTARTPFSVIIEAMGQEQTFGILNVLEFSSDRKRMSVIVRTPSGRLRLYCKGADNVIFERLSKDSKYMEETLCHLEYFATEGLRTLCVAYADLSENEYEEWLKVYQEASTILKDRAQRLEECYEIIEKNLLLLGATAIEDRLQAGVPETIATLLKAEIKIWVLTGDKQETAINIGYSCRLVSQNMALILLKEDSLDATRAAITQHCTDLGNLLGKENDVALIIDGHTLKYALSFEVRRSFLDLALSCKAVICCRVSPLQKSEIVDVVKKRVKAITLAIGDGANDVGMIQTAHVGVGISGNEGMQATNNSDYAIAQFSYLEKLLLVHGAWSYNRVTKCILYCFYKNVVLYIIELWFAFVNGFSGQILFERWCIGLYNVIFTALPPFTLGIFERSCTQESMLRFPQLYKITQNGEGFNTKVFWGHCINALVHSLILFWFPMKALEHDTVLTSGHATDYLFVGNIVYTYVVVTVCLKAGLETTAWTKFSHLAVWGSMLTWLVFFGIYSTIWPTIPIAPDMRGQATMVLSSAHFWLGLFLVPTACLIEDVAWRAAKHTCKKTLLEEVQELETKSRVLGKAVLRDSNGKRLNERDRLIKRLGRKTPPTLFRGSSLQQGVPHGYAFSQEEHGAVSQEEVIRAYDTTKKKSRKK
